Experimental findings from PMC5780041 are described below.

Protein sequences, listed by entry. Tags and fused reporters are not part of them. Lines headed by an entry give the natural chain unless they say otherwise; changes in a name come on top.
UniProt P51149: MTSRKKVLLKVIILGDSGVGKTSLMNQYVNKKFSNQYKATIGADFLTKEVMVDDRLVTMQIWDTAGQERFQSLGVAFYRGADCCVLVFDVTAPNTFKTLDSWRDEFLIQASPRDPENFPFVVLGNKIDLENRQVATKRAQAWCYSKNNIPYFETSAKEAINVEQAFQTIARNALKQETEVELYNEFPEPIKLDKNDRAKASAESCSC

These are yes or no findings as the source states them, for the method shown. Binding seen in cells or lysates may run through a third protein. Here binding means that the protein was enriched with, or labelled near, the bait; the list need not be complete.

This experiment addresses 2 × HA-tagged RAB7A T22N mutant (UniProt P51149). As to the kind of experiment: affinity purification with mass spectrometry; TBC1D15/17 DKO HCT116 cells with mCherry-Parkin and 2HA-RAB7A (T22N), DMSO or valinomycin 3 hr; cells cross-linked with 5 mM DTBP; lysis in MCLB buffer (0.5% NP40); anti-HA beads overnight at 4°C, HA peptide elution; CompPASS analysis.

B1: GDI1 (protein, UniProt P31150 1-447)
chain: MDEEYDVIVLGTGLTECILSGIMSVNGKKVLHMDRNPYYGGESSSITPLEELYKRFQLLEGPPESMGRGRDWNVDLIPKFLMANGQLVKMLLYTEVTRYLDFKVVEGSFVYKGGKIYKVPSTETEALASNLMGMFEKRRFRKFLVFVANFDENDPKTFEGVDPQTTSMRDVYRKFDLGQDVIDFTGHALALYRTDDYLDQPCLETVNRIKLYSESLARYGKSPYLYPLYGLGELPQGFARLSAIYGGTYMLNKPVDDIIMENGKVVGVKSEGEVARCKQLICDPSYIPDRVRKAGQVIRIICILSHPIKNTNDANSCQIIIPQNQVNRKSDIYVCMISYAHNVAAQGKYIAIASTTVETTDPEKEVEPALELLEPIDQKFVAISDLYEPIDDGCESQVFCSCSYDATTHFETTCNDIKDIYKRMAGTAFDFENMKRKQNDVFGEAEQ
Turning to B1, the binding entry was “binds”.
